{"source": "patent US9120877B2", "about": "“Sulfated polysaccharide compound and the preparation and use thereof” (PARNELL TECHNOLOGIES PTY LTD, priority 2008, dated 2015)", "assay": "Stability (degradation and discolouration) of injectable aqueous GXS formulation with antioxidants without refrigeration", "format": "physicochemical", "from_the_text": "In one arrangement, the injectable formulation includes a suitable antioxidant to enable the aqueous formulation to remain substantially stable (that is to resist discolouration and degradation) without refrigeration. Patent WO 2007/123800 claims a PPS formulation with “an antioxidant in the group metabisulfite, sodium bisulfate and ascorbate in a concentration of about 0.02% w/v to about 5.0% w/v” is stable without refrigeration. […] This finding supports a conclusion that GXS is a distinct entity to prior art PPS extracted from xylan.", "note": "For at least one compound, name, drawing or mass did not settle the structure."}
{"smiles": "O=C1O[C@H]([C@@H](O)CO)C(O)=C1O", "note": "[ascorbate]", "values": [{"measurement": "antioxidant effect on GXS in an aqueous solution", "value": "does not act as an anti-oxidant"}]}
